Results from publication doi:10.1101/2022.04.18.488654.
A weaker result is weaker than the reference pair of the same experiment.

Target: DnaD F6A (Bacillus subtilis 168CA) (UniProt P39787)
Assay: fluorescence polarisation
Details: residues 1-232

Sequence: TTTTTTTTTTTTTTTTTTTTTTTTTTTTTTTTTTTTTTTT [polyT40 (oCW837)]
- binding result: binds more weakly
